The values below come from PubChem BioAssay AID493014 (National Center for Advancing Translational Sciences (NCATS), 2011).

This is one part of the list. These are further read-outs of the screen, such as a control signal, another cell line or another target. No call is given for them. Compounds called inactive in the main read-out are mostly missing here. Words in brackets tell the shape of the fitted curve; partial curves, single points and poor fits give uncertain potencies.

This assay can be described thus: qHTS Assay to Find Inhibitors of Chronic Active B-Cell Receptor Signaling. As to conditions: ABC-DLBCL IkBa-CBG/CBR reporter, luminescence ratio (green luciferase fused to IkBa over red control in TMD8 lymphoma cells), 4 h. An outline of the steps: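 TMD8 human ABC-DLBCL cells with doxycycline-inducible IκBα–green luciferase fusion and unfused red luciferase, in 0.5% FBS medium; compounds up to 46 uM, 4 h at 37C. Green/red luminescence ratio, filter-overlap corrected, fitted to concentration-response curves.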
For orientation: In qHTS, concentration-response curves come from the screen itself.

The mark [1] stands for this setting: measured here: CBR red luminescence, cell number.
The mark [2] stands for this setting: measured here: IkBa-CBG green luminescence.

On to `CCOC(=O)c1cc(C(=O)OCC)c(=O)[nH]c1N1CCCC1`, for which the AC50 (usually the concentration at which the activity in the assay is half-maximal) under setting [1] was 35.5 µM [falling, partial curve, poor fit].

With `COc1cc(SC)ccc1C(=O)N1CCN(c2ccccc2F)CC1`, the AC50 under setting [1] is 7.08 µM [falling, partial curve, poor fit].

Turning to `NC1=NC(c2ccccc2Cl)n2c(nc3ccccc32)N1` (configuration not stated), the concentration at half-maximal activity (AC50) under setting [1] was 20 µM [falling, single point].

On to `Cc1ccc(N(CC(=O)NCc2ccccn2)S(=O)(=O)c2ccccc2)cc1C`, for which, under setting [1], the AC50 is 11.2 µM [falling, partial curve, poor fit].

`CCN(CC)C(=O)Cn1cc(C(=O)C(=O)Nc2ccc3c(c2)OCCO3)c2ccccc21`: the AC50 under setting [1] is 3.98 µM [falling, partial curve, poor fit].

For the compound `CC1OC(Oc2ccc3ccc(=O)oc3c2-c2c(O)ccc3cc(Oc4ccc5ccc(=O)oc5c4)c(=O)oc23)C(O)C(O)C1O` (configuration not stated), the AC50 under setting [1] is 16.4 µM [rising, single point].

On to `COc1cccc(/C=C2\SC(=S)N(CCCC(=O)Nc3cc(C)on3)C2=O)c1`, for which the concentration at half-maximal activity (AC50) under setting [1] was 3.16 µM [falling, partial curve, poor fit].

Regarding `O=C(/C=C/c1ccc([N+](=O)[O-])cc1)OCC(=O)N1CCCCCC1`, the concentration at half-maximal activity (AC50) under setting [1] was 0.082 µM [rising, full curve, poor fit].

For `CCCCNC(=O)c1onc(CCl)c1C(=O)OC`, the AC50 is, setting by setting: under setting [1], 7.94 µM [falling, partial curve, poor fit]; under setting [2], 35.5 µM [falling, single point].

Regarding `CS(=O)(=O)N1Cc2ccccc2CC1C(=O)OCC(=O)NCCc1ccc(S(N)(=O)=O)cc1` (configuration not stated), the half-maximal activity concentration (AC50) under setting [1] was 29.1 µM [rising, single point].

For the compound `CC1(C)CC(=O)C2=C(C1)OC(N)=C(C#N)C2c1ccccc1[N+](=O)[O-]` (configuration not stated), under setting [1], the AC50 is 6.31 µM [rising, single point].

As for `COc1cc(CNn2c(C)n[nH]c2=S)cc(Cl)c1OCc1ccccc1`, the AC50 under setting [1] is 35.5 µM [rising, partial curve, poor fit].

As for `COC(=O)c1cc(COC(=O)c2ccc(OC)c(S(=O)(=O)N3CCCC3)c2)oc1C`, the AC50 under setting [1] was 0.164 µM [rising, full curve, poor fit].

For the compound `O=C(CSc1nc2sc3c(c2c(=O)n1-c1ccccc1)CCCC3)N/N=C/c1ccc(C(=O)O)cc1`, the AC50 under setting [1] was 15.8 µM [rising, partial curve, poor fit].

With `COc1ccccc1OCCNC(=O)C(CCSC)NC(=O)COc1ccccc1` (configuration not stated), the AC50 under setting [1] is 29.1 µM [falling, single point].

Take `COc1ccc(-c2[nH]ncc2CNC(C)c2cn(C)nc2C)c(F)c1` (configuration not stated): the AC50 under setting [1] was 35.5 µM [falling, single point].

As to `CC(NCc1ccc(-c2ccccc2)cc1)C(O)c1ccccc1` (configuration not stated), under setting [2], the AC50 was 23.1 µM [falling, single point].

Consider `COc1cccc(OC)c1-c1nnc(-c2cn(C)c3ccccc23)o1`, for which, under setting [1], the concentration at half-maximal activity (AC50) is 0.116 µM [rising, full curve, poor fit].

For the compound `COC(=O)c1cc(NC(=O)C2COc3ccccc3O2)ccc1Cl` (configuration not stated), under setting [1], the AC50 was 0.651 µM [rising, full curve, poor fit].

`COC(=O)c1ccc(S(=O)(=O)N2CCC(C(N)=O)CC2)n1C`: under setting [1], the AC50 was 3.16 µM [rising, partial curve, poor fit].

As for `COC(=O)c1cc(NC(=O)C2COc3ccccc3O2)cc(C(=O)OC)c1` (configuration not stated), the AC50 under setting [1] was 20.6 µM [rising, partial curve, poor fit].

Turning to `Cc1cc(=O)n2[nH]c(-c3ccc(F)cc3)nc2n1`, the AC50 under setting [1] is 6.31 µM [falling, partial curve].

On to `O=C(Cc1ccccc1)N/N=C/c1cc(Br)c(Br)o1`, for which, under setting [1], the half-maximal activity concentration (AC50) is 0.891 µM [rising, full curve].

For `Clc1ccc2c(c1)c1cc(Cl)ccc1n2CN1CCOCC1`, the AC50 under setting [1] was 23.1 µM [rising, partial curve].

For the compound `Clc1nc2ccccc2cc1-c1nnn(-c2ccccc2)n1`, the half-maximal activity concentration (AC50) under setting [1] was 15.8 µM [falling, single point].

On to `Cn1[nH]c(-c2ccccc2)c(/C=N/O)c1=O`, for which the AC50 under setting [1] is 2 µM [rising, partial curve, poor fit].

As to `CCOC(=O)CN1C(=O)C(Sc2n[nH]c(-c3cccc(C)c3)n2)CCc2ccccc21` (configuration not stated), the AC50 under setting [1] is 11.2 µM [falling, single point].

`CC1CN(c2ccc([N+](=O)[O-])c(NCCOc3ccc(Cl)cc3)c2)CC(C)N1` (configuration not stated): the AC50 under setting [1] was 11.2 µM [falling, single point].

For `COc1cc(OC)nc(-n2ncc(Br)c(Br)c2=O)n1`, the AC50 under setting [1] is 4.61 µM [falling, full curve] and the AC50 under setting [2] was 3.26 µM [rising, full curve, poor fit].

As for `COc1ccccc1Nc1nc(-c2cccc([N+](=O)[O-])c2)cs1`, the AC50 under setting [1] was 17.8 µM [falling, single point].

Turning to `Nc1cc(N)nc(SCc2nnnn2-c2ccc(Cl)cc2)n1`, the half-maximal activity concentration (AC50) under setting [1] was 20.6 µM [rising, partial curve, poor fit].

For the compound `COC(=O)CSc1nc2c(c(=O)n(C)c(=O)n2C)n1CCC(C)C`, the AC50 under setting [1] is 20.6 µM [falling, partial curve, poor fit].

For the compound `Cc1cc(Nc2ccccc2C(=O)O)n(-c2cccc(Cl)c2)n1`, the AC50 under setting [1] is 0.355 µM [falling, full curve, poor fit].

Regarding `CC1=NNC(=O)C1Oc1ccccc1` (configuration not stated), the AC50 under setting [1] was 35.5 µM [rising, single point].

For the compound `CC(C)(C)c1cc(C(=O)N2CCc3ccccc3C2)ccn1`, under setting [1], the AC50 is 7.94 µM [rising, partial curve].

`O=C/C(=C\Nc1ccc(Cl)cn1)c1nc2ccccc2o1`: the AC50 under setting [1] is 2.59 µM [rising, partial curve, poor fit].

In the case of `O=[N+]([O-])/C=C/c1cc2ccccc2[nH]1`, the AC50 runs as follows: under setting [1], 35.5 µM [rising, single point]; under setting [2], 35.5 µM [falling, partial curve, poor fit].

Turning to `c1ccc2c(Nc3nc4c(s3)CCCC4)cccc2c1`, the concentration at half-maximal activity (AC50) under setting [1] was 14.1 µM [falling, partial curve, poor fit].

For `O=C(Nc1cc(N2CCOCC2)ncn1)Nc1cccc2ccccc12`, under setting [1], the AC50 was 11.2 µM [rising, partial curve, poor fit].
